Measured values taken from patent publication US20020091240A1.
No constants are given. Whether binding was seen depends on the method and setting. Some entries that bind do so weakly or less than the wild type.

By UniProt entry, the sequences of proteins in these tests, tags left out. Residues count along the entry.
UniProt P01579, residues 24-166: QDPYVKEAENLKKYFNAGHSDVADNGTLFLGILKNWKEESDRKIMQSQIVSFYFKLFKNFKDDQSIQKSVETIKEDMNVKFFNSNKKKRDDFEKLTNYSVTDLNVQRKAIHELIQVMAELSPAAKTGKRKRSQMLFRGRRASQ

Target: human γ-IFN (human) (UniProt P01579)
Experiment: ELISA

B1: Chimeric AF2 antibody (antibody, V domains shown)
VH: QVQLQQPGADLVMPGAPVKLSCLASGYIFTSSWINWVKQRPGRGLEWIGRIDPSDGEVHYNQDFKDKATLTVDKSSSTAYIQLNSLTSEDSAVYYCARGFLPWFADWGQGTLVTVSA
VL: NIVMTQSPKSMYVSIGERVTLSCKASENVDTYVSWYQQKPEQSPKLLIYGASNRYTGVPDRFTGSGSATDFTLTISSVQAEDLADYHCGQSYNYPFTFGSGTKLEIK
- binding: binds
